Reference: PubChem BioAssay AID1259424 (University of Nebraska Medical Center, 2018)
This is a random part of about 14,000 deposited reagents. 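Higher correlation or smaller distance means closer resemblance to KSR1 loss; control wells, including KSR1 knockdowns, recur on many plates.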 The numbers tell different reagents against one gene apart. Further read-outs or replicates are left out here. Reagent sequences are not shown. The record does not give: the time to read-out.

- Purpose: 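Seek colon cancer survival genes behaving like KSR1, using a six-gene signature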 (primary screen)
- System: human HCT116 colon cancer cells
- Reagent: siRNA pool against human genes, 50 nM
- Measurement: 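Six signature mRNAs by branched-DNA multiplex assay, scaled to two housekeeping genes and non-targeting median, log2; matched to mean KSR1 knockdown profile by Pearson correlation and euclidean distance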
- Scale: mean correlation with KSR1 profile: higher = expression change more like KSR1 knockdown

mean correlation with KSR1 profile, by gene symbol and reagent
PYM1 (PYM1 exon junction complex associated factor): #1 -0.0356
FERMT2 (FERM domain containing kindlin 2): #1 -0.218
SLC17A5: #1 -0.233
CSRP1 (cysteine and glycine rich protein 1): #1 -0.204
NUP85 (nucleoporin 85): #1 0.41
SLAMF6 (SLAM family member 6): #1 0.119
GRIK3 (glutamate ionotropic receptor kainate type subunit 3): #1 -0.702
GMCL2 (germ cell-less 2, spermatogenesis associated): #1 -0.0563
PPID (peptidylprolyl isomerase D): #1 0.631
KLHL24 (kelch like family member 24): #1 0.542
DIS3 (DIS3 exosome endoribonuclease and 3'-5' exoribonuclease): #1 -0.558
SLC4A11: #1 0.675
SSR2 (signal sequence receptor subunit 2): #1 -0.0711
NME4 (NME/NM23 nucleoside diphosphate kinase 4): #1 -0.647
DCAKD (dephospho-CoA kinase domain containing): #1 0.846
CTNNA2 (catenin alpha 2): #1 -0.207
C1QB (complement C1q B chain): #1 -0.263
BICD2 (BICD cargo adaptor 2): #1 -0.349
CECR2 (CECR2 histone acetyl-lysine reader): #1 -0.0934
MVP (major vault protein): #1 -0.651
ANKRD17 (ankyrin repeat domain 17): #1 0.523
SERPINB3 (serpin family B member 3): #1 -0.367
MC4R (melanocortin 4 receptor): #1 0.536
STAG3L1 (STAG3 cohesin complex component like 1 (pseudogene)): #1 0.307
PPP2R1A (protein phosphatase 2 scaffold subunit Aalpha): #1 0.172
ADCK5 (aarF domain containing kinase 5): #1 0.602
CD209 (CD209 molecule): #1 -0.0977
MC1R (melanocortin 1 receptor): #1 0.934
RNPEP (arginyl aminopeptidase): #1 0.488
HPRT1 (hypoxanthine phosphoribosyltransferase 1): #1 -0.0611
SGIP1 (SH3GL interacting endocytic adaptor 1): #1 0.666
H3C2 (H3 clustered histone 2): #1 0.661
MLLT6 (MLLT6, PHD finger containing): #1 0.76
JPH2 (junctophilin 2): #1 -0.649
PKP4 (plakophilin 4): #1 -0.352
PTPRO (protein tyrosine phosphatase receptor type O): #1 -0.039
TP63 (tumor protein p63): #1 0.216
CDK13 (cyclin dependent kinase 13): #1 0.104
ST13 (ST13 Hsp70 interacting protein): #1 -0.125
PPIL2 (peptidylprolyl isomerase like 2): #1 -0.631
TATDN2 (TatD DNase domain containing 2): #1 -0.635
NMI (N-myc and STAT interactor): #1 -0.174
AMBRA1 (autophagy and beclin 1 regulator 1): #1 -0.364
VAC14 (VAC14 component of PIKFYVE complex): #1 -0.00327; #2 0.447
TBC1D29P (TBC1 domain family member 29, pseudogene): #1 -0.653
TUBB3 (tubulin beta 3 class III): #1 -0.306
GAB1 (GRB2 associated binding protein 1): #1 -0.116
ATP2C2 (ATPase secretory pathway Ca2+ transporting 2): #1 0.37
MCTP1 (multiple C2 and transmembrane domain containing 1): #1 0.271
CKAP2 (cytoskeleton associated protein 2): #1 -0.188
OR5I1 (olfactory receptor family 5 subfamily I member 1): #1 0.322
UBR7 (ubiquitin protein ligase E3 component n-recognin 7): #1 -0.0409
ZNF217 (zinc finger protein 217): #1 -0.29
MMGT1 (membrane magnesium transporter 1): #1 -0.0476
SNTB2 (syntrophin beta 2): #1 -0.0411
TENT5A (terminal nucleotidyltransferase 5A): #1 -0.572
GAK (cyclin G associated kinase): #1 -0.595
KRTAP3-2 (keratin associated protein 3-2): #1 0.515
PCYT1B (phosphate cytidylyltransferase 1B, choline): #1 -0.251
LAG3 (lymphocyte activating 3): #1 0.157
FAAH (fatty acid amide hydrolase): #1 -0.51
DCAF1 (DDB1 and CUL4 associated factor 1): #1 -0.46

Entries listed so far whose target name starts with D or d:
mean correlation with KSR1 profile, by gene symbol and reagent
DIS3 (DIS3 exosome endoribonuclease and 3'-5' exoribonuclease): #1 -0.558
DCAKD (dephospho-CoA kinase domain containing): #1 0.846
DCAF1 (DDB1 and CUL4 associated factor 1): #1 -0.46
